Measured values reported in PubChem BioAssay AID2685 (National Center for Advancing Translational Sciences (NCATS), 2010).
Some of the results follow. Further columns of the screen follow, without active or inactive calls. Compounds called inactive in the main read-out are mostly missing here. The note in brackets gives the kind of curve behind each potency; many fits are weak.

Assay: qHTS Assay for Lipid Storage Modulators in Drosophila S3 Cells;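 as to cell number change: cells counted by Cell Tracker Red CMTPX staining in the red channel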
Settings: BODIPY lipid droplet fluorescence, 18-24 h; for cell number change: measured here: cell count max response, cells fed with added oleic acid
How it was run: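 Drosophila S3 cells loaded with oleic acid (400 uM, as added) and compounds at several concentrations; lipid droplets imaged by 488-nm laser-scanning cytometry, 500–530 nm intensity and object ratio to cell channel. Percent activity normalized to 20 uM Triacsin C.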

[1] = measured here: lipid fluorescence (Fed channel) AC50, cells fed with added oleic acid
[2] = measured here: cell number channel AC50, cells fed with added oleic acid

## COC(=O)c1ccc(C(=O)Nc2cc(Cl)ccc2Cl)cc1NC(=O)c1ccc(N(C)C)cc1
  cell number change: 7.5%

## CCc1ccc(N2CC(C(=O)Nc3cc(C)on3)CC2=O)cc1 (stereo not given)
  cell number change: 20.1%
[1]
  AC50: 0.731 µM [rising, full curve, poor fit]

## CC1=C(C#N)C(C(F)(F)F)(C(F)(F)F)N=C(c2ccco2)N1
  cell number change: 6.68%
[1]
  AC50: 5.8 µM [rising, full curve]

## COC(=O)CCC(=O)OC1(C)C(=O)C2=CN(CCN3CCOCC3)C(c3ccc(OC)cc3)=CC2=C(Br)C1=O (stereo not given)
  cell number change: 10.2%
[1]
  AC50: 3.66 µM [rising, single point]

## Cc1ccc(C(=O)NNC(=O)c2cccc(S(=O)(=O)N3CCN(c4ccccc4)CC3)c2)cc1
  cell number change: -18.2%
[1]
  AC50: 29.1 µM [falling, single point]

## O=C1C=C(c2ccc(CO)cc2)C[C@@H](c2ccc3c(c2)OCO3)C1
  cell number change: -19.2%

## COc1ccc(NC(=O)CSCC(=O)Oc2c(OC)cccc2OC)cc1
  cell number change: 13.5%

## C=CCn1c(C(CC(C)C)CC(C)O)n[nH]c1=S (stereo not given)
  cell number change: 95.9%
[2]
  AC50: 16.4 µM [rising, single point]
[1]
  AC50: 29.1 µM [rising, single point]

## Cc1n[nH]c(=S)n1/N=C/c1ccccc1OCc1ccc(Cl)cc1Cl
  cell number change: -66.1%
[2]
  AC50: 16.4 µM [falling, partial curve]
[1]
  AC50: 14.6 µM [falling, single point]

## COc1ccccc1C(=O)Nc1nnc(S(=O)(=O)N2CCCCC2)s1
  cell number change: 0.597%
[1]
  AC50: 0.58 µM [falling, single point]

## O=C(NCC1CCCO1)c1cccc(N2C(=O)C3C4C=CC(C4)C3C2=O)c1 (stereo not given)
  cell number change: 23.9%
[2]
  AC50: 0.651 µM [falling, single point]
[1]
  AC50: 0.651 µM [falling, single point]

## COc1cc2oc(=O)c3c(c2cc1OCC(=O)c1c(C)n(C)c2ccccc12)CCCC3
[2]
  AC50: 1.46 µM [rising, partial curve]
[1]
  AC50: 1.64 µM [rising, full curve]

## FC(F)Oc1ccc(-c2csc(=Nc3cccnc3)n2CC2CCCO2)cc1 (stereo not given)
  cell number change: 18.5%
[2]
  AC50: 0.0517 µM [rising, full curve, poor fit]
[1]
  AC50: 18.4 µM [falling, single point]

## COc1ccc(N2CC(C(=O)Nc3ccccc3C(=O)NCc3ccco3)CC2=O)cc1 (stereo not given)
[1]
  AC50: 0.13 µM [rising, full curve, poor fit]

## Cc1ccc[n+](CC(=O)c2ccccc2)c1
  cell number change: 29.4%
[1]
  AC50: 5.8 µM [rising, partial curve, poor fit]

## CCCSc1nc(C)nc2c1c(=O)n(C)c(=O)n2C
  cell number change: 55.5%
[2]
  AC50: 20.6 µM [rising, single point]
[1]
  AC50: 6.51 µM [rising, single point]

## Cc1c(OCC(=O)NCCCN2CCOCC2)ccc2c3c(c(=O)oc12)CCCC3
  cell number change: 14.1%
[2]
  AC50: 0.0103 µM [rising, full curve, poor fit]
[1]
  AC50: 6.51 µM [rising, single point]

## Cc1ccn(C(CC(=O)c2ccc(Br)cc2)C(=O)O)n1 (stereo not given)
  cell number change: -33.1%
[2]
  AC50: 8.2 µM [falling, partial curve]
[1]
  AC50: 18.4 µM [falling, single point]

## CC(=O)c1ccc(N2CCN(C(=O)C3CCN(C(=O)Nc4ccccc4)CC3)CC2)cc1
  cell number change: -13.5%
[2]
  AC50: 0.731 µM [falling, single point]

## O=C(NCc1ccccc1F)c1cc(=O)[nH]c2ccccc12
  cell number change: 13.9%

## CN1CCc2c(sc(NC(=O)C3CCCCC3)c2C(N)=O)C1
  cell number change: 20.2%
[2]
  AC50: 6.51 µM [rising, partial curve, poor fit]
[1]
  AC50: 6.51 µM [rising, single point]

## COc1ccccc1NC(=O)CSc1ncc(CO)n1Cc1ccc(F)cc1
  cell number change: 5.38%
[1]
  AC50: 10.3 µM [rising, partial curve]

## CCn1cc(C(=O)Nc2ncccc2O)c(=O)c2cc(F)c(N3CCN(C(=O)c4ccco4)CC3)cc21
  cell number change: -24.1%
[2]
  AC50: 0.411 µM [falling, full curve, poor fit]
[1]
  AC50: 0.092 µM [falling, full curve, poor fit]

## COc1ccc(/C=C/C2=Nc3ccccc3NC(C)(C)C2)cc1OC
  cell number change: 4.11%

## CC(C)(C)c1ccc(C(=O)NC(=S)NNC(=O)COc2ccccc2)cc1
  cell number change: -16.1%

## Cc1occc1C(=O)NC(C)C(C)(C)C (stereo not given)
  cell number change: -1.72%
[1]
  AC50: 2.06 µM [falling, full curve]

## O=C(CCCCl)Nc1nc(-c2ccc3c(c2)OCCO3)cs1
[2]
  AC50: 6.51 µM [rising, single point]
[1]
  AC50: 6.51 µM [rising, single point]

## CCC(Sc1nc(C)cc(=O)[nH]1)C(=O)Nc1nnc(C)s1 (stereo not given)
  cell number change: -33.4%
[2]
  AC50: 5.17 µM [falling, full curve, poor fit]
[1]
  AC50: 0.651 µM [falling, partial curve, poor fit]

## CCOCCCn1c(SCc2nc3ccccc3s2)nc2ccccc2c1=O
[1]
  AC50: 0.259 µM [falling, partial curve, poor fit]

## O=C(Cc1ccc(F)cc1)Nc1nc(-c2ccc(F)cc2)cs1
  cell number change: 54.8%
[2]
  AC50: 29.1 µM [rising, single point]

## O=C(COc1ccc(Cl)cc1)NCc1ccccc1
  cell number change: 16.8%
[1]
  AC50: 29.1 µM [rising, single point]

## COc1ccc(NC(=O)c2cc3ccccc3[nH]2)cc1
  cell number change: -19.8%

## NNC(=O)Cn1c(-c2nonc2N)nc2ccccc21
  cell number change: 43.4%
[2]
  AC50: 23.1 µM [rising, single point]
[1]
  AC50: 23.1 µM [rising, single point]

## O=C(c1ccc2c(=O)n3c(nc2c1)CCCCC3)N1CCN(c2ccccc2)CC1
  cell number change: 31.4%
[2]
  AC50: 9.2 µM [rising, partial curve]
[1]
  AC50: 6.51 µM [rising, partial curve]

## CN(c1ccccc1)S(=O)(=O)c1ccc(NC(=O)C2CC2)cc1
  cell number change: -6.93%
[1]
  AC50: 29.1 µM [falling, single point]

## CN(C)C(=O)c1c(NC(=O)c2ccccc2)sc2c1CCC2
  cell number change: 0.549%
[1]
  AC50: 29.1 µM [falling, single point]
